{"source": "PubChem BioAssay AID662", "about": "(National Center for Advancing Translational Sciences (NCATS), 2007)", "note": "The list shows a part of the results. Shown are side measurements of this screen, not its main read-out; they come without a call. The list favours compounds with an active or inconclusive main result. Potencies come from curve fits of mixed quality, noted in brackets.", "data": [{"assay": "Cell signaling CRE-BLA (Fsk stim)", "settings": "CHO CRE-bla reporter (cAMP response element driving beta-lactamase), forskolin EC10, beta-lactamase ratio; measured here: 460 nm blue channel", "how_it_was_run": "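Using CellSensor CRE-bla CHO cells in Opti-MEM with 0.5% dialyzed FBS, compounds were titrated with EC10 NKH 477 for 3 h at 37 °C. CCF4 ratio (460/530 nm) gave %Activity; AC50 derived.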", "values": [{"smiles": "Cn1c(=O)c(-c2ccccc2)nc2cnc(N3CCNCC3)nc21", "AC50": "5.01 µM [rising, partial curve]"}, {"smiles": "NCCC[C@@H](CC(=O)N[C@@H]1CCCC[C@H]1C(=O)N[C@H](CC(=O)N[C@@H](CCC(=O)O)CC(=O)O)Cc1ccccc1)NC(=O)C[C@H](CO)NC(=O)[C@@H]1CNCC[C@H]1N", "AC50": "10 µM [falling, full curve]"}, {"smiles": "Cc1nn(Cc2ccccc2)c(C)c1NC(=O)c1cc(-c2ccc3c(c2)OCO3)on1", "AC50": "0.158 µM [rising, full curve, poor fit]"}, {"smiles": "CNC(=O)NC(=O)CSc1nc2cc(C(=O)OC)ccc2c(=O)n1-c1ccccc1", "AC50": "5.01 µM [falling, single point]"}, {"smiles": "Cc1cc(C)n(-c2nc3c(c(=O)[nH]c(=O)n3C)n2CC(O)COc2ccccc2C)n1", "note": "(configuration not stated)", "AC50": "10 µM [rising, partial curve]"}, {"smiles": "Cc1ccccc1-c1ccc2ncnc(N(C)Cc3ccco3)c2c1", "AC50": "10 µM [rising, partial curve]"}, {"smiles": "CCOCCCNC(=O)c1ccc2c(c1)OCO2", "AC50": "0.631 µM [rising, full curve, poor fit]"}, {"smiles": "O=c1c(-c2cccc(F)c2)nc2cncnc2n1Cc1ccc(F)cc1", "AC50": "7.94 µM [rising, partial curve]"}, {"smiles": "CCOC(=O)Cc1nnc(NC(=O)CSc2nncn2C)s1", "AC50": "3.98 µM [rising, single point]"}, {"smiles": "CCc1nnc(NC(=O)CCC(=O)N2CCN(Cc3cc(Cl)ccc3OC)CC2)s1", "AC50": "5.01 µM [falling, single point]"}, {"smiles": "Clc1ccccc1CNc1ncnc2nc[nH]c12", "AC50": "25.1 µM [falling, single point]"}, {"smiles": "CCOC(=O)Nc1cc(C(=O)OC)cc(C(=O)OC)c1", "AC50": "25.1 µM [rising, single point]"}, {"smiles": "COC(=O)c1c(-c2cccs2)csc1NC(=O)CN1CCOCC1", "AC50": "2 µM [rising, full curve]"}, {"smiles": "Cc1ccc(-n2nc(-c3ccc(N)cc3)cc2N)cc1", "AC50": "25.1 µM [falling, single point]"}, {"smiles": "Cc1onc(-c2ccccc2Cl)c1C(=O)Nc1ccc(OCC(=O)N2CCOCC2)cc1", "AC50": "0.398 µM [rising, partial curve]"}, {"smiles": "COc1ccc(OC)c(NC(=O)COc2ccc(S(=O)(=O)NC(C)C)cc2)c1", "AC50": "10 µM [rising, single point]"}, {"smiles": "O=C(NCc1ccco1)Nc1ccc2nsnc2c1", "AC50": "10 µM [falling, partial curve]"}, {"smiles": "CC(C)(C)NC(=O)CSc1nnc(CN2CCCCCC2=O)n1-c1ccccn1", "AC50": "5.01 µM [falling, single point]"}, {"smiles": "Cc1c(C(=O)NCc2ccc3c(c2)OCO3)oc2ccccc12", "AC50": "25.1 µM [falling, single point]"}, {"smiles": "O=C(Cc1ccccc1)Nc1ccc2oc(-c3cccnc3)nc2c1", "AC50": "12.6 µM [rising, partial curve]"}, {"smiles": "COc1ccccc1CCn1c(=O)cnc2cncnc21", "AC50": "25.1 µM [rising, single point]"}, {"smiles": "Cc1ccc2nc(NCc3ccco3)c(C=NCc3ccco3)c(=O)n2c1", "AC50": "12.6 µM [rising, partial curve]"}, {"smiles": "Cc1cc(C)n2cc(CSC3=NCCS3)nc2n1", "AC50": "3.16 µM [falling, partial curve]"}, {"smiles": "c1cc2c(cc1Nc1nc(-c3ccc4c(c3)OCO4)cs1)OCCO2", "AC50": "25.1 µM [falling, single point]"}, {"smiles": "C=CCSc1nnc2nc3c(nn12)c1cc(C)ccc1n3CC=C", "AC50": "12.6 µM [rising, partial curve]"}, {"smiles": "CC1=CC(=C(C#N)c2nc3ccccc3s2)C=C(C)N1Cc1ccco1", "AC50": "3.98 µM [rising, full curve]"}, {"smiles": "CCCCOCCCNC(=O)c1ccc2c(c1)OCO2", "AC50": "0.00316 µM [falling, full curve]"}, {"smiles": "Cc1nnc(SCCn2c(N3CCCC(C)C3)nc3c2c(=O)[nH]c(=O)n3C)s1", "note": "(configuration not stated)", "AC50": "10 µM [rising, single point]"}, {"smiles": "COc1cc2c(cc1NC(=O)CC1SC(N3CCCC3)=NC1=O)oc1ccccc12", "note": "(configuration not stated)", "AC50": "20 µM [falling, single point]"}, {"smiles": "COc1ccc(C(=O)NC2=C(C#N)CCC2)cc1OC", "AC50": "7.94 µM [rising, partial curve]"}, {"smiles": "CC(C)(C)NC(=O)Cn1cc(C#N)c2cc(Br)ccc21", "AC50": "3.16 µM [falling, full curve]"}, {"smiles": "O=C(NCCC1=CCCCC1)N[C@@H](Cc1ccccc1)C(=O)O", "AC50": "10 µM [falling, partial curve]"}, {"smiles": "Cc1ccc(-c2nnn(CC(=O)N(Cc3cccs3)C(C(=O)NC(C)(C)C)c3ccc(C)o3)n2)o1", "note": "(configuration not stated)", "AC50": "25.1 µM [falling, single point]"}, {"smiles": "CN(C)c1ncc2nc(-c3cn(C)c4ccccc34)c(=O)n(C[C@H]3CCCO3)c2n1", "AC50": "5.01 µM [rising, partial curve]"}, {"smiles": "O=C1Nc2ccc(S(=O)(=O)NCCC3=CCCCC3)c3cccc1c23", "AC50": "15.8 µM [rising, single point]"}, {"smiles": "CCOc1cccc(C=Nc2cc(C)cc(C)c2O)c1O", "AC50": "7.94 µM [falling, partial curve]"}, {"smiles": "COc1ccc(OC)c(-c2cc(C(=O)N3CCc4ccccc4C3)no2)c1", "AC50": "3.16 µM [rising, partial curve]"}, {"smiles": "COCCn1c(=O)c(-c2cccs2)nc2cnc(Oc3ccc(OC)cc3)nc21", "AC50": "10 µM [rising, partial curve]"}, {"smiles": "Cc1cnc(NC(=O)C(C)N2C(=O)C3CC=CCC3C2=O)s1", "note": "(configuration not stated)", "AC50": "0.316 µM [falling, full curve]"}, {"smiles": "CCCCc1c2ccccc2nc2[nH]c3ccccc3c12", "AC50": "5.01 µM [rising, partial curve]"}, {"smiles": "CN1CCN(c2ccc(Cl)cc2NC(=O)c2ccc(S(=O)(=O)N3CCCCCC3)cc2)CC1", "AC50": "0.794 µM [rising, full curve]"}, {"smiles": "C[C@@]12C(=O)OC(=O)[C@@]1(C)[C@@H]1CC[C@@H]2O1", "AC50": "15.8 µM [falling, partial curve, poor fit]"}, {"smiles": "COc1ccc2c(c1)CCc1cc(C(=O)N3CCN(c4ccc(N5CCOCC5)nn4)CC3)sc1-2", "AC50": "3.16 µM [rising, partial curve]"}, {"smiles": "CCCOc1ccc(NC(N)=O)cc1OCCC", "AC50": "15.8 µM [falling, partial curve, poor fit]"}, {"smiles": "COCCn1c(=O)c(CCc2ccccc2)nc2cnc(N3CCNCC3)nc21", "AC50": "12.6 µM [rising, partial curve]"}, {"smiles": "CN1CCN(c2ncc3nc(-c4cccs4)c(=O)n(-c4ccccc4)c3n2)CC1", "AC50": "12.6 µM [rising, partial curve]"}, {"smiles": "CC1CCCC(C)N1C(=O)c1cc(-c2ccc(Cl)c(Cl)c2)on1", "note": "(configuration not stated)", "AC50": "7.94 µM [rising, partial curve]"}, {"smiles": "CCCOc1ccc2ccccc2c1/C=N/n1cnnc1", "AC50": "0.398 µM [rising, full curve]"}, {"smiles": "CCCCCn1c(N2CCN(Cc3ccccc3)CC2)nc2c1c(=O)[nH]c(=O)n2C", "AC50": "15.8 µM [rising, partial curve, poor fit]"}, {"smiles": "Cc1cc(N2CCN(S(=O)(=O)c3ccc4c(c3)OCCO4)CC2)n2ncnc2n1", "AC50": "5.01 µM [rising, partial curve]"}, {"smiles": "O=c1c(-c2cccc(Cl)c2)nc2cncnc2n1Cc1ccccc1", "AC50": "12.6 µM [rising, partial curve]"}, {"smiles": "O=C(O)c1cc2cc(F)ccc2[nH]1", "AC50": "3.98 µM [falling, full curve]"}, {"smiles": "CCCCCCN1CC(O)=C(c2nc3ccccc3[nH]2)C1=N", "AC50": "3.98 µM [falling, single point]"}, {"smiles": "O=C(c1ccco1)N1CCN(C(c2ccccc2Cl)c2nnnn2Cc2cccs2)CC1", "note": "(configuration not stated)", "AC50": "1.58 µM [falling, partial curve]"}, {"smiles": "COc1ccc(C2=Nn3c(nnc3-c3cccnc3)SC2)cc1", "AC50": "1 µM [rising, full curve]"}, {"smiles": "CCc1nnc(NC(=O)C(C)N2C(=O)C3C4C=CC(C4)C3C2=O)s1", "note": "(configuration not stated)", "AC50": "0.0398 µM [falling, full curve]"}, {"smiles": "O=C(Cn1c(NCCCO)nc2ccccc21)c1cccc(Br)c1", "AC50": "15.8 µM [falling, partial curve]"}, {"smiles": "Cn1c(SCC(=O)Nc2ccc3cn[nH]c3c2)nnc1-c1cnccn1", "AC50": "0.01 µM [falling, full curve, poor fit]"}, {"smiles": "CC(=O)N[C@H](c1ccccc1)[C@@]1(C)C[C@@H]1[C@@H](C)C(=O)Nc1ccc2ccccc2c1", "AC50": "3.98 µM [falling, partial curve]"}, {"smiles": "CCCn1c(SCC(=O)N2c3ccccc3Sc3ccccc32)nc2c1c(=O)n(C)c(=O)n2C", "AC50": "3.16 µM [rising, partial curve]"}, {"smiles": "O=C(Nc1ccc(Cl)c(C(F)(F)F)c1)N1CCCC(O)C1", "note": "(configuration not stated)", "AC50": "10 µM [falling, partial curve, poor fit]"}, {"smiles": "Cn1c(C(=O)NC2CCCCCC2)cc2c(=O)n(C)c3ccccc3c21", "AC50": "2.51 µM [rising, full curve]"}, {"smiles": "CCCCn1nc(NC(=O)c2cccs2)c2cc3cc(OC)ccc3nc21", "AC50": "10 µM [rising, partial curve]"}, {"smiles": "CCOC(=O)Cc1nnc(NC(=O)CSc2nnc3c4ccccc4n(C(C)C)c3n2)s1", "AC50": "10 µM [rising, partial curve]"}, {"smiles": "NC(=O)c1cccn1Cc1ccccc1Cl", "AC50": "5.01 µM [falling, single point]"}, {"smiles": "O=c1c2ccccc2nnn1Cc1nnc(-c2ccccc2Br)o1", "AC50": "12.6 µM [rising, single point]"}, {"smiles": "CCCCN(CCCC)C(=O)CSc1nnc(-c2cc(OC)c(OC)c(OC)c2)o1", "AC50": "12.6 µM [rising, partial curve]"}]}]}
